Reference: PubChem BioAssay AID504467 (National Center for Advancing Translational Sciences (NCATS), 2011)
Hit rate of the full screen: of about 330,000 compounds, about 7,700 (2.3%) were called active. The shares of active, inactive and inconclusive entries below differ from those in the screen. The call rests on the fitted dose curve; in most records, active means well fitted inhibition curve with a large enough effect; inconclusive means small, poorly fitted or top-dose-only effect, or effect the other way; inactive means flat fitted curve, though single readings scatter. A potency beside an inconclusive call is a rough fit, not a confirmed value.

experiment: qHTS screen for small molecules that inhibit ELG1-dependent DNA repair in human embryonic kidney (HEK293T) cells expressing luciferase-tagged ELG1; settings: HEK293T ELG1-luciferase reporter, luminescence, 16 h, DNA damage induced by 5-fluorouridine; activity change, negative = inhibition: at 46.1 µM (top of the series); further: nearly all actives have a fitted effect of over 55% in size
Method in brief: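 Cells (2,000 per well) received 5-fluorouridine plus test compound or DMSO and were incubated 16 hr at 37 °C, 5% CO2. Luciferase activity was read by luminescence 30 min after ONE-Glo addition; signal suppression marked inhibition of damage-induced ELG1 function.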
On the % scale 0 is the no-effect control and ±100 the full control effect; potency means the concentration at half of the fitted maximal effect.

Structure (SMILES) | Potency | activity change, negative = inhibition
COc1cc(CNc2ccc(N3CCCC3)cc2)ccc1OCc1ccccc1F | inconclusive: 16.4 µM [activator, partial curve] | 
Cc1ccccc1NC(=O)COC(=O)Cc1ccsc1 | inconclusive: 25.9 µM [activator, partial curve, poor fit] | 
Cc1ccc(S(=O)(=O)N2CCCCC2C)cc1[N+](=O)[O-] (stereo not given) | inconclusive: 1.16 µM [inhibitor, single point] | 
CCOc1ccc(NC(=O)Nc2cccn(Cc3ccccc3)c2=O)cc1 | inconclusive: 29.1 µM [inhibitor, single point] | 
COc1ccccc1NC(=O)COC(=O)c1oc2ccccc2c1C | inconclusive: 16.4 µM [inhibitor, partial curve, poor fit] | 
Cc1cccc(-n2cc(-c3ccccc3)c3c(NN4CCOCC4)ncnc32)c1 | inconclusive: 29.1 µM [inhibitor, single point] | 
O=S(=O)(c1ccc(Br)cc1Cl)N1CCCN(c2ccc(C(F)(F)F)cn2)CC1 | inconclusive: 32.6 µM [inhibitor, partial curve, poor fit] | 
Fc1ccc(NC(=S)Nc2cccc3ccccc23)cc1F | inactive | 
CN(C)S(=O)(=O)c1cc(NC(=O)CN2CCN(c3ccc(O)cc3)CC2)ccc1Cl | inconclusive: 5.8 µM [inhibitor, full curve] | 
COc1cc(NS(=O)(=O)c2ccc(NC(C)=O)cc2)cc(OC)c1 | inconclusive: 5.17 µM [inhibitor, full curve, poor fit] | 
CCOc1ccc(Cl)cc1/C=N/O | inactive | 
Cc1cc(C)c(CN2CCN(Cc3ccc(C)o3)C(CCO)C2)c(-n2cccn2)c1 (stereo not given) |  | inconclusive: 36.6% [activator]
O=C(CSc1nnc(CNC(=O)c2ccco2)o1)Nc1cccc(C(F)(F)F)c1 | inconclusive: 18.3 µM [activator, partial curve, poor fit] | 
CCOC(=O)C1(Cc2cccc(OC)c2)CCCN(C(=O)c2cc(C)on2)C1 (stereo not given) | inconclusive: 18.3 µM [activator, partial curve] | 
O=S(=O)(c1ccc(Cl)cc1)c1snnc1-c1ccccc1 | inconclusive: 20.6 µM [inhibitor, partial curve] | 
CSc1cccc(NC(=O)CCCOc2ccc(Cl)cc2Cl)c1 | inactive | 
Cc1cc(C)cc(NC(=O)Nc2cccnc2)c1 | inactive | 
CNS(=O)(=O)c1cc(NC(=O)c2cncn2-c2ccccc2)ccc1C | inactive | 
N#CC1=C(c2ccccc2)/C(=C/c2ccccc2)OC1=O | inconclusive: 29.1 µM [inhibitor, single point] | 
CC(=O)N1CCc2cc(S(=O)(=O)NCCC(=O)NC3CCCc4ccccc43)ccc21 (stereo not given) | active: 13 µM | 
COc1ccc(CC(=O)N/N=C(\C)c2cccs2)cc1 | inactive | 
Cn1c(=O)n(C)c2cc(C(=O)Nc3ccc4c(c3)OCO4)ccc21 | inconclusive: 16.4 µM [activator, partial curve] | 
Cc1ccc(C(=O)Nc2cc(C)c(OCC(=O)N3CCOCC3)c(C)c2)cc1 | inconclusive: 1.64 µM [activator, partial curve] | 

Structure (SMILES) | Potency | activity change, negative = inhibition
COc1cc(/C=N/Nc2nc(Nc3ccccc3)nc(-n3nc(C)cc3C)n2)cc(OC)c1OC | active: 1.84 µM | 
Cc1cc(NC(=S)NC(=O)/C=C/c2ccc(S(=O)(=O)N3CCOCC3)cc2)ccc1Br | inactive | 
C=CCn1c(=O)c2ccccc2n2c(SCc3nnc(-c4ccccc4Br)o3)nnc12 | inconclusive: 17.8 µM [inhibitor, single point] | 
Cc1ccc(Nc2nc(=O)c3cccnc3s2)cc1 | inconclusive: 13 µM [activator, partial curve] | 
CS(=O)(=O)c1ccc(C(=O)Nc2cc(S(C)(=O)=O)ccc2Cl)cc1 | inconclusive: 16.4 µM [activator, single point] | 
Cc1noc(NS(=O)(=O)c2ccc(NC(=O)c3cc(F)c(F)c(F)c3F)cc2)c1C | inactive | 
Cc1c(O)ccc(/C(Cc2ccc3ccccc3n2)=N\N)c1O | inconclusive: 3.66 µM [activator, full curve, poor fit] | 
Cc1cc(C(=O)N/N=C/c2c(C)n(C)c3ccccc23)n[nH]1 | inconclusive: 10.3 µM [inhibitor, partial curve, poor fit] | 
O=C(Cc1ccccc1)Nc1c(Cl)ccc2nsnc12 | inconclusive: 29.1 µM [activator, single point] | 
O=C(CNc1cc(S(=O)(=O)N2CCCC2)ccc1OCC(F)(F)F)Nc1ccc(SC(F)F)cc1 | inconclusive: 20.6 µM [inhibitor, partial curve] | 
Cc1ccnc(NC(=O)CCN2C(=O)c3ccccc3S2(=O)=O)n1 | inconclusive: 16.4 µM [activator, single point] | 
COC(=O)c1cn(NC(=O)/C=C/c2cc(OC)ccc2OC)c(=O)c2ccccc12 | inactive | 
COc1ccc(/C=N/NC(=S)NCC2CCCO2)cc1 (stereo not given) | inactive | 
CNC(=O)c1c(NC(=O)c2nc3ccccc3s2)sc2c1CCC2 | inconclusive: 2.31 µM [activator, full curve] | 
Cc1ccc(C)n1NC(=O)c1ccccc1[N+](=O)[O-] | inactive | 
O=C(NC(=S)Nc1ccc(Br)cn1)c1cncc(Br)c1 | inactive | 
CCO[C@H]1OC(C(=O)NCc2ccccc2)=C[C@@H](c2ccc(Br)cc2)[C@@H]1CCCO | inconclusive: 29.1 µM [inhibitor, single point] | 
Cc1cccc(/C=N/NC(=O)Cn2nccc2C)n1 | inactive | 
Cc1ccc(NC(=O)Nc2nnc(-c3ccccc3)o2)cc1 | inconclusive: 23.1 µM [activator, partial curve] | 
COc1ccc(CNC(=O)c2sccc2C)cc1 | inconclusive: 18.3 µM [activator, single point] | 
C#CCn1ccc(O)c(Cc2c(F)cccc2Cl)c1=O | inconclusive: 29.1 µM [activator, partial curve, poor fit] | 
Cc1cccc(NC(=O)c2cc(=O)c3ccccc3o2)c1 | inconclusive: 8.2 µM [activator, partial curve] | 

Among those listed so far, 2 have a nitro group on carbon.
Structure (SMILES) | Potency | activity change, negative = inhibition
Cc1ccc(S(=O)(=O)N2CCCCC2C)cc1[N+](=O)[O-] (stereo not given) | inconclusive: 1.16 µM [inhibitor, single point] | 
Cc1ccc(C)n1NC(=O)c1ccccc1[N+](=O)[O-] | inactive | 
